We go through 3 compounds from patent US7794972B2, “Benzoate-and anthranilate-inducible promoters” (priority 2002, dated 2010).

Structures are written as SMILES.

In the series the test system is P. fluorescens. As to the kind of experiment: Metabolism of the inducer by the host cells (HPLC of culture broth). Conditions: for metabolism of the inducer by P. fluorescens: strain that is no knock-out.

Take `O=C([O-])c1ccccc1.[Na+]` [sodium benzoate]: the “metabolism of the inducer by P. fluorescens” value is “metabolize benzoate efficiently”. The “metabolism of the inducer by benAB knock-out strain” value (benAB deletion mutants, ~5 mM benzoate, 24 hr, HPLC of cell-free broth) was “unable to metabolize benzoate”.

Consider `Nc1ccccc1C(=O)[O-].[Na+]` [sodium anthranilate], for which the “metabolism of the inducer by antA knock-out strain” value (insertional inactivation of antA, 20 L scale, during induction) was “not metabolized”.

As to `Nc1cccc(Cl)c1C(=O)O` [6-chloro-anthranilate, 6-chloroanthranilate], the “metabolism of the inducer by P. fluorescens” value is on record as “not metabolized”.
